Assay results from US20230203107A1, “PEPTIDE FOR TREATING SEPSIS DERIVED FROM RV3364C PROTEIN OF MYCOBACTERIUM TUBERCULOSIS” (priority 2021, published 2023).
Results are given in words; binding and its absence hold for the method and conditions named. Some results given as binding are weak or reduced against the parent protein; the word gives no strength. Where a sequence is shown, tags or fusion partners need not be part of it.

Biological target: T1, EGFLAM (EGF-like Fibronectin type III and Laminin G domains), full-length recombinant human protein on the HuProt microarray (human) (UniProt Q63HQ2)
T1 sequence: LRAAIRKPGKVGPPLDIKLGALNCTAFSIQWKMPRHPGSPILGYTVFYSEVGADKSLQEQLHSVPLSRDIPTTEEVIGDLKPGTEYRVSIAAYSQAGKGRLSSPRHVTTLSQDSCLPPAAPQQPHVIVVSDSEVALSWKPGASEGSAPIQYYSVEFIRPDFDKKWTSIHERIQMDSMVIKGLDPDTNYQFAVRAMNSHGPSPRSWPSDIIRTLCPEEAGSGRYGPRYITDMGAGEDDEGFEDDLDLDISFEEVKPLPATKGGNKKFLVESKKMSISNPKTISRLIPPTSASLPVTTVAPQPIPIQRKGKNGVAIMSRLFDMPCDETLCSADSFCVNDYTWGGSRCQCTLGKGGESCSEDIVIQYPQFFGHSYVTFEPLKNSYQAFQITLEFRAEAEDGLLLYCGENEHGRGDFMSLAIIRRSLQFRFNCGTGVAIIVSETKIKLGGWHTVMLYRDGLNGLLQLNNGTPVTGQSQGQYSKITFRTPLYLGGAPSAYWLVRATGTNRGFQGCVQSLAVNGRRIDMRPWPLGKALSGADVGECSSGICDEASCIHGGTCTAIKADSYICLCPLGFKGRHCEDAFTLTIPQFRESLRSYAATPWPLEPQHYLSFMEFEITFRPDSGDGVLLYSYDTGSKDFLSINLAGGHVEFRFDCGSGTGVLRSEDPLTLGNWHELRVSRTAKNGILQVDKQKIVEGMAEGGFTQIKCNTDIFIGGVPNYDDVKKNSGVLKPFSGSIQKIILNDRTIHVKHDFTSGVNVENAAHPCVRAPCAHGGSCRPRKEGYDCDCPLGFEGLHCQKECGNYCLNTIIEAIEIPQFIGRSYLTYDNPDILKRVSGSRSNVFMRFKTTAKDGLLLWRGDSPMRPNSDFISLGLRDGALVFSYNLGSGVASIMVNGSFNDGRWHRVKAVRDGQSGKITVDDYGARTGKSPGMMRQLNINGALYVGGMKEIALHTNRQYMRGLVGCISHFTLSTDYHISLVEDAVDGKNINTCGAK
Experiment: HuProt human proteome microarray, biotinylated rRv3364c, streptavidin Alexa Fluor 532

B1: recombinant Rv3364c (rRv3364c) protein, N-terminal 6xHis tag (protein)
chain: MKARLPDSPLDWLVSKFAREVPGVAHALLVSVDGLPVAASEHLPRERADQLAAVTSGLASLAGGAAQLFDGGQVLQSVVEMQNGYLLLMQVGDGSALAALAATGCDIGQIGYEMAILVERVGGVVQSCRR
binding: binds
